Test results: article PMC11520541
No constants are given. Whether binding was seen depends on the method and setting. In cells and extracts the contact can be indirect. Some results given as binding are weak or reduced against the parent protein; the word gives no strength. For some assays here: Where a sequence is shown, tags or fusion partners need not be part of it. One block for each binder: values may come before it.

The chains behind the UniProt entries cited, without tags or fusion partners.
UniProt P46937: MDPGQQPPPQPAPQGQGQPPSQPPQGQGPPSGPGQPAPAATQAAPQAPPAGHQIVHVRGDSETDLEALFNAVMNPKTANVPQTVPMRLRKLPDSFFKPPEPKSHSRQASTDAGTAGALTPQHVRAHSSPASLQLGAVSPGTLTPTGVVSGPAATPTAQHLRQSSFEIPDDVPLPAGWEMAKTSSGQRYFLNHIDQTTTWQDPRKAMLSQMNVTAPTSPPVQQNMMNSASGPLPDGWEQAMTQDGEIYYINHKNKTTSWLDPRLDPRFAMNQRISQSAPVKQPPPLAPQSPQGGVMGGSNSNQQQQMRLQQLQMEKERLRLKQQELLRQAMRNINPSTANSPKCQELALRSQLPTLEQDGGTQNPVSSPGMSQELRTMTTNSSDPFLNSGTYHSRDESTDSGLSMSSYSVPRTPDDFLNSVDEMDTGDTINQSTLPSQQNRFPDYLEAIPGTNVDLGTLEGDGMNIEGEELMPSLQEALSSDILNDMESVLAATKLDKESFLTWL

Key:
[1] = molecular target: YAP1, endogenous (human (endogenous in MDA-MB-231 and BT549)) (UniProt P46937); experiment: co-IP; endogenous proteins of MDA-MB-231 and BT549 cells; immunoprecipitation lysis buffer with PMSF and phosphatase inhibitors; protein A and protein G agarose beads; western blot
HA-tagged YAP1 = HA-tagged YAP1 (UniProt P46937); experiment: co-IP; FLAG-DLAT and HA-YAP1 plasmids co-transfected into HEK293T, MDA-MB-231 and BT549 cells; immunoprecipitation lysis buffer; protein A and protein G agarose beads; western blot

binding [1]: binds
B1: dihydrolipoamide S-acetyltransferase (DLAT), endogenous (protein, UniProt P10515 87-647)
chain: SLPPHQKVPLPSLSPTMQAGTIARWEKKEGDKINEGDLIAEVETDKATVGFESLEECYMAKILVAEGTRDVPIGAIICITVGKPEDIEAFKNYTLDSSAAPTPQAAPAPTPAATASPPTPSAQAPGSSYPPHMQVLLPALSPTMTMGTVQRWEKKVGEKLSEGDLLAEIETDKATIGFEVQEEGYLAKILVPEGTRDVPLGTPLCIIVEKEADISAFADYRPTEVTDLKPQVPPPTPPPVAAVPPTPQPLAPTPSAPCPATPAGPKGRVFVSPLAKKLAVEKGIDLTQVKGTGPDGRITKKDIDSFVPSKVAPAPAAVVPPTGPGMAPVPTGVFTDIPISNIRRVIAQRLMQSKQTIPHYYLSIDVNMGEVLLVRKELNKILEGRSKISVNDFIIKASALACLKVPEANSSWMDTVIRQNHVVDVSVAVSTPAGLITPIVFNAHIKGVETIANDVVSLATKAREGKLQPHEFQGGTFTISNLGMFGIKNFSAIINPPQACILAIGASEDKLVPADNEKGFDVASMMSVTLSCDHRVVDGAVGAQWLAEFRKYLEKPITMLL

binding (HA-tagged YAP1): binds
B2: FLAG-tagged DLAT (protein, UniProt P10515 87-647)
chain: B1 chain
